Data reported in article PMC10759362.
No constants are given. Whether binding was seen depends on the method and setting. Binding seen in cells or lysates may run through a third protein. Some entries that bind do so weakly or less than the wild type.

Molecular target: T1, Phosphoglycerate kinase 1 (PGK1) (human) (UniProt P00558)
T1 sequence: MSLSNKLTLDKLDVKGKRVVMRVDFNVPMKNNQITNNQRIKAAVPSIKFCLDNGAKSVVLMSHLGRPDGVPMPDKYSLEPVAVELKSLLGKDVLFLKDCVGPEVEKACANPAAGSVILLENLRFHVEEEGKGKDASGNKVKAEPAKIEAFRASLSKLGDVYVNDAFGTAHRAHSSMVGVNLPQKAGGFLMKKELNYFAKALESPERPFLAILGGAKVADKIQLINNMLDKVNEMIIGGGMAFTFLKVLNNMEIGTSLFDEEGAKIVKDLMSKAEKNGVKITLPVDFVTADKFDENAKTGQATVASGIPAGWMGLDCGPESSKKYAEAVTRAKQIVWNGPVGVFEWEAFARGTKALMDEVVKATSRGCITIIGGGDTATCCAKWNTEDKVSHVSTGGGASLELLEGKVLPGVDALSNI
Assay: co-IP; Classic IP/Co-IP kit (Pierce); cells with indicated treatment (OGT shRNA or pENTER-OGT) lysed in IP lysis buffer, supernatants incubated with the appropriate antibodies, protein A/G-agarose beads, SDS-PAGE and Western blotting

binding: binds
B1: O-GlcNAc transferase (OGT) (enzyme, UniProt O15294 1-1046)
chain: MASSVGNVADSTEPTKRMLSFQGLAELAHREYQAGDFEAAERHCMQLWRQEPDNTGVLLLLSSIHFQCRRLDRSAHFSTLAIKQNPLLAEAYSNLGNVYKERGQLQEAIEHYRHALRLKPDFIDGYINLAAALVAAGDMEGAVQAYVSALQYNPDLYCVRSDLGNLLKALGRLEEAKACYLKAIETQPNFAVAWSNLGCVFNAQGEIWLAIHHFEKAVTLDPNFLDAYINLGNVLKEARIFDRAVAAYLRALSLSPNHAVVHGNLACVYYEQGLIDLAIDTYRRAIELQPHFPDAYCNLANALKEKGSVAEAEDCYNTALRLCPTHADSLNNLANIKREQGNIEEAVRLYRKALEVFPEFAAAHSNLASVLQQQGKLQEALMHYKEAIRISPTFADAYSNMGNTLKEMQDVQGALQCYTRAIQINPAFADAHSNLASIHKDSGNIPEAIASYRTALKLKPDFPDAYCNLAHCLQIVCDWTDYDERMKKLVSIVADQLEKNRLPSVHPHHSMLYPLSHGFRKAIAERHGNLCLDKINVLHKPPYEHPKDLKLSDGRLRVGYVSSDFGNHPTSHLMQSIPGMHNPDKFEVFCYALSPDDGTNFRVKVMAEANHFIDLSQIPCNGKAADRIHQDGIHILVNMNGYTKGARNELFALRPAPIQAMWLGYPGTSGALFMDYIITDQETSPAEVAEQYSEKLAYMPHTFFIGDHANMFPHLKKKAVIDFKSNGHIYDNRIVLNGIDLKAFLDSLPDVKIVKMKCPDGGDNADSSNTALNMPVIPMNTIAEAVIEMINRGQIQITINGFSISNGLATTQINNKAATGEEVPRTIIVTTRSQYGLPEDAIVYCNFNQLYKIDPSTLQMWANILKRVPNSVLWLLRFPAVGEPNIQQYAQNMGLPQNRIIFSPVAPKEEHVRRGQLADVCLDTPLCNGHTTGMDVLWAGTPMVTMPGETLASRVAASQLTCLGCLELIAKNRQEYEDIAVKLGTDLEYLKKVRGKVWKQRISSPLFNTKQYTMELERLYLQMWEHYAAGNKPDHMIKPVEVTESA
